The record followed here is article PMC7306619.

Sequences of proteins named here, by UniProt entry; tags and fusion partners are left off.
UniProt Q38832: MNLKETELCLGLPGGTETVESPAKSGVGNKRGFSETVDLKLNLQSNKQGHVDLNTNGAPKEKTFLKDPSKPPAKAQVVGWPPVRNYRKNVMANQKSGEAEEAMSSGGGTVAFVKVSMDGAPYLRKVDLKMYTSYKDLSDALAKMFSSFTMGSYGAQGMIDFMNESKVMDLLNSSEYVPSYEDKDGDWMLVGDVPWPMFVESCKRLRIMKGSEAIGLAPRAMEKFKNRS

These are yes or no findings as the source states them, for the method shown. For some of these results: In cells and extracts the contact can be indirect. Some binding calls cover weakened binding; strength is not graded here. For some of these results: Tags and fused reporters may be left off the sequences shown.

Test [1] addresses T1, GST‐AtDi19‐3 (Arabidopsis thaliana) (UniProt Q84J70).
T1 sequence: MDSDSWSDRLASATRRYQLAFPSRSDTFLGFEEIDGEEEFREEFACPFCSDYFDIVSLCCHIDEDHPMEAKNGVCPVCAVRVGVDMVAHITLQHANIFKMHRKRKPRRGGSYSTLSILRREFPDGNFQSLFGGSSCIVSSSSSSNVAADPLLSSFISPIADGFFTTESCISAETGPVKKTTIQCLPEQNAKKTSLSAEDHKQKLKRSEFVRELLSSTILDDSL
The test is described as follows: pull-down; GST fusion or GST from bacterial lysate immobilised on GSH-Sepharose 4B and washed; about 4 ug pre-cleared bacterial extract of the 6xHis protein, 1 h at 4 C in EB (150 mM NaCl, 100 mM Tris-Cl pH 7.5, 0.5% NP40, protease inhibitor, MG132), with 5 uM IAA and 50 uM MG132 (for OsDi19-5 also without IAA); anti-His immunoblot; only the target purified. For orientation: Immunoblotting shows a protein as a band on a membrane.

Test [2] has as its target AtIAA14/cYFPC1 (Arabidopsis thaliana) (UniProt Q38832). Kind of test: split reporter; split EYFP (pSITE-cEYFPC1 and pSITE-nEYFPC1) co-bombarded into onion epidermal cells; confocal microscopy, fluorescence in the nucleus.
The target in test [3] is AtIAA14 (Gal4 DNA-binding domain fusion, yeast two-hybrid) (Arabidopsis thaliana) (UniProt Q38832). The test is described as follows: two-hybrid; direct test: Di19 in pGADT7 and Aux/IAA in pGBKT co-transformed in AH109; SD/-LW and SD/-HLW; HIS3 and MEL1 reporters.
The target of test [4] is T2, AtIAA16 (Gal4 DNA-binding domain fusion, yeast two-hybrid) (Arabidopsis thaliana) (UniProt O24407).
T2 sequence: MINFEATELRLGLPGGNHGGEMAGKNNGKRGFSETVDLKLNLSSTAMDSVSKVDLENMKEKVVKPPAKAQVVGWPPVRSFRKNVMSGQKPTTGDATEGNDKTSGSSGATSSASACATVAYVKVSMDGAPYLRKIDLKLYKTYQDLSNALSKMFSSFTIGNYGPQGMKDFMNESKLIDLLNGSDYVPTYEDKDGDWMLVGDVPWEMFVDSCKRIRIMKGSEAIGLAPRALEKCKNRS
The description is as above.

Turning to “6xHis‐AtIAA14 (from UniProt Q38832 1-228)”, the binding entry in test [1] is on record as “binds”.

B1: AtDi19‐3/nYFPC1 (protein, UniProt Q84J70 1-223)
chain: MDSDSWSDRLASATRRYQLAFPSRSDTFLGFEEIDGEEEFREEFACPFCSDYFDIVSLCCHIDEDHPMEAKNGVCPVCAVRVGVDMVAHITLQHANIFKMHRKRKPRRGGSYSTLSILRREFPDGNFQSLFGGSSCIVSSSSSSNVAADPLLSSFISPIADGFFTTESCISAETGPVKKTTIQCLPEQNAKKTSLSAEDHKQKLKRSEFVRELLSSTILDDSL
With B1, in test [2], the binding result is recorded as “binds”.

B2: AtDi19‐3 (Gal4 activation domain fusion, yeast two-hybrid) (protein, UniProt Q84J70 1-223)
chain: MDSDSWSDRLASATRRYQLAFPSRSDTFLGFEEIDGEEEFREEFACPFCSDYFDIVSLCCHIDEDHPMEAKNGVCPVCAVRVGVDMVAHITLQHANIFKMHRKRKPRRGGSYSTLSILRREFPDGNFQSLFGGSSCIVSSSSSSNVAADPLLSSFISPIADGFFTTESCISAETGPVKKTTIQCLPEQNAKKTSLSAEDHKQKLKRSEFVRELLSSTILDDSL
For the molecule B2, the binding result in test [3] is given as “binds”; in test [4] it was “no binding”.
